In PMC3483148:
These are yes or no findings as the source states them, for the method shown. For some assays here: In cells and extracts the contact can be indirect. Some results given as binding are weak or reduced against the parent protein; the word gives no strength.

Chains of the proteins cited; added tags and fusions are not shown. Residues count along the entry.
UniProt Q9BZS1, residues 1-417: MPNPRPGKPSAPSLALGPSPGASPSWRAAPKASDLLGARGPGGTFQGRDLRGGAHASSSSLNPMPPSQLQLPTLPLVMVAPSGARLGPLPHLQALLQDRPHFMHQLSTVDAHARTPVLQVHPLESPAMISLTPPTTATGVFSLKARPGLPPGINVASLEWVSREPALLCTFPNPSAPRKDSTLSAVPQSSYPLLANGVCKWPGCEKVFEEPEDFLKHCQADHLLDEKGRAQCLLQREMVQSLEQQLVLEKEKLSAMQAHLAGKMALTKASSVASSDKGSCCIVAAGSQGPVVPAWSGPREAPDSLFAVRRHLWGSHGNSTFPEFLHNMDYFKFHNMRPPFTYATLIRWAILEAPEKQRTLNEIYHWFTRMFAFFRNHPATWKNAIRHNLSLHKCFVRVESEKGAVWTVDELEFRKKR
UniProt Q04206: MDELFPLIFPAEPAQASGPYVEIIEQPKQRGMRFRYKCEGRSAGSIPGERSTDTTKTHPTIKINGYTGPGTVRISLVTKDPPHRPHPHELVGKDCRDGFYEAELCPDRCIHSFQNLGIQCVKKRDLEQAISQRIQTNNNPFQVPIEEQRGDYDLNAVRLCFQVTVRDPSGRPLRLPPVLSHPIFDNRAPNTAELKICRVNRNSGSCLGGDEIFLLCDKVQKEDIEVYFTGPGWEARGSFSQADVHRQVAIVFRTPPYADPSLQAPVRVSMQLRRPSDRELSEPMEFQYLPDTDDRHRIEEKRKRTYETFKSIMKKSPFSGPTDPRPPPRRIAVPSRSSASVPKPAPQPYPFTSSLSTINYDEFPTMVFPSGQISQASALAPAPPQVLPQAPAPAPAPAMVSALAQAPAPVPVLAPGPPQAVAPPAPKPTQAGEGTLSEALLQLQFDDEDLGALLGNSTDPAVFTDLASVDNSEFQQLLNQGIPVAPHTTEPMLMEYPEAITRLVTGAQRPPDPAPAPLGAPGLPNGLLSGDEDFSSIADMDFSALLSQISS

Legend:
[1] = biological target: forkhead transcription factor FOXP3 (forkhead box P3) (human (endogenous in CD4+ T cells)) (UniProt Q9BZS1); assay: co-IP; endogenous FOXP3 immunoprecipitated with anti-FOXP3 on Protein-A Sepharose from 1% Nonidet P-40 total lysates of human CD4+ T cells stimulated 24 h with Dap3/B7 or unstimulated; Western blot with anti-RelA
[2] = biological target: forkhead transcription factor FOXP3 (forkhead box P3) (human (endogenous in CD4+ T cells)) (UniProt Q9BZS1); assay: Re-ChIP; formaldehyde-fixed chromatin of CD4+CD25- T cells 12 h after CD28 stimulation; first immunoprecipitation with anti-FOXP3 or anti-RelA, eluted with 10 mM DTT, second immunoprecipitation with the other antibody; PCR of Cd25 promoter region -319 +87

RelA/NF-κB (from UniProt Q04206 1-551) was tested, and the binding [1] was “binds” and the binding [2] was “binds”.
